Test results from article PMC5928194.

Chains of the proteins cited; added tags and fusions are not shown.
UniProt Q9Y530: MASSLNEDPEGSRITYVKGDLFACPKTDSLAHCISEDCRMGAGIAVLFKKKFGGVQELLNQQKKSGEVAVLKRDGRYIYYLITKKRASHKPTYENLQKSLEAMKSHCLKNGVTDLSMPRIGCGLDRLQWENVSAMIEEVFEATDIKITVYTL
UniProt Q9Y5B9: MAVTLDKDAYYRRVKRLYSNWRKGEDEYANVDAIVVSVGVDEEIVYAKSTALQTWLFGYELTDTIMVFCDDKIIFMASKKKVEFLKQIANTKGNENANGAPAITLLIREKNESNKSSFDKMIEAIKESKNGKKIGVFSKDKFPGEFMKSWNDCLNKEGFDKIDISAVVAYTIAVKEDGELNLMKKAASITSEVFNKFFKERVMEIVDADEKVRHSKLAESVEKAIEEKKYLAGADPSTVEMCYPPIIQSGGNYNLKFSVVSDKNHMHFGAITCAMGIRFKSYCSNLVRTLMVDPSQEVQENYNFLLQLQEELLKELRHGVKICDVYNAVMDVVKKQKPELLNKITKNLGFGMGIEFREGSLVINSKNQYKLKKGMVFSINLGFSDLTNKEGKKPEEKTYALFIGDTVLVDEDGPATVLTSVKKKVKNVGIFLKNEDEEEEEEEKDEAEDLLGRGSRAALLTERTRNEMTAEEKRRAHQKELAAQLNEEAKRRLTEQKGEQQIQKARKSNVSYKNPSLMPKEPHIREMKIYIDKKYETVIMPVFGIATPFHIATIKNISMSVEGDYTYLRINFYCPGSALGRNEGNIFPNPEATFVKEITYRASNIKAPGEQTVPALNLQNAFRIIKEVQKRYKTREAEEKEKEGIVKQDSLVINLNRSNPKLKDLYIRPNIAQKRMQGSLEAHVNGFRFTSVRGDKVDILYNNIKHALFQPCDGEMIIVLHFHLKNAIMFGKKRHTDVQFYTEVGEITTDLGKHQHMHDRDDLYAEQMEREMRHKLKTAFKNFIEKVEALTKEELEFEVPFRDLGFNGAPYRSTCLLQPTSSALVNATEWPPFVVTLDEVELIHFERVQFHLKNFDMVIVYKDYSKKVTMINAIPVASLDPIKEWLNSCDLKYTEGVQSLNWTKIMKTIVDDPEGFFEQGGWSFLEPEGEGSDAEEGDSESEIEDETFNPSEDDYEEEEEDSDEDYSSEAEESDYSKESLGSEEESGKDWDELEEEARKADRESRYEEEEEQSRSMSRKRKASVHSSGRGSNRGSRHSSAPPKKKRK
UniProt P35250: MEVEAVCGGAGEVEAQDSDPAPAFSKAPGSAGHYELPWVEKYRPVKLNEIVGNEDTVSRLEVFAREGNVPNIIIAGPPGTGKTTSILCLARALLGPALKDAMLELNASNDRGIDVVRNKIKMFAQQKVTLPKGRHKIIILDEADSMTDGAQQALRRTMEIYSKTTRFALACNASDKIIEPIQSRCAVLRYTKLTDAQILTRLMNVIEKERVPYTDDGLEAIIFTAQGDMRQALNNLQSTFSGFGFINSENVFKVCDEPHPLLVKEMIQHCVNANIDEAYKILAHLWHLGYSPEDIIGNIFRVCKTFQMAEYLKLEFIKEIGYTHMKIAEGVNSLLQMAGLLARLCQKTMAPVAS
UniProt P09874: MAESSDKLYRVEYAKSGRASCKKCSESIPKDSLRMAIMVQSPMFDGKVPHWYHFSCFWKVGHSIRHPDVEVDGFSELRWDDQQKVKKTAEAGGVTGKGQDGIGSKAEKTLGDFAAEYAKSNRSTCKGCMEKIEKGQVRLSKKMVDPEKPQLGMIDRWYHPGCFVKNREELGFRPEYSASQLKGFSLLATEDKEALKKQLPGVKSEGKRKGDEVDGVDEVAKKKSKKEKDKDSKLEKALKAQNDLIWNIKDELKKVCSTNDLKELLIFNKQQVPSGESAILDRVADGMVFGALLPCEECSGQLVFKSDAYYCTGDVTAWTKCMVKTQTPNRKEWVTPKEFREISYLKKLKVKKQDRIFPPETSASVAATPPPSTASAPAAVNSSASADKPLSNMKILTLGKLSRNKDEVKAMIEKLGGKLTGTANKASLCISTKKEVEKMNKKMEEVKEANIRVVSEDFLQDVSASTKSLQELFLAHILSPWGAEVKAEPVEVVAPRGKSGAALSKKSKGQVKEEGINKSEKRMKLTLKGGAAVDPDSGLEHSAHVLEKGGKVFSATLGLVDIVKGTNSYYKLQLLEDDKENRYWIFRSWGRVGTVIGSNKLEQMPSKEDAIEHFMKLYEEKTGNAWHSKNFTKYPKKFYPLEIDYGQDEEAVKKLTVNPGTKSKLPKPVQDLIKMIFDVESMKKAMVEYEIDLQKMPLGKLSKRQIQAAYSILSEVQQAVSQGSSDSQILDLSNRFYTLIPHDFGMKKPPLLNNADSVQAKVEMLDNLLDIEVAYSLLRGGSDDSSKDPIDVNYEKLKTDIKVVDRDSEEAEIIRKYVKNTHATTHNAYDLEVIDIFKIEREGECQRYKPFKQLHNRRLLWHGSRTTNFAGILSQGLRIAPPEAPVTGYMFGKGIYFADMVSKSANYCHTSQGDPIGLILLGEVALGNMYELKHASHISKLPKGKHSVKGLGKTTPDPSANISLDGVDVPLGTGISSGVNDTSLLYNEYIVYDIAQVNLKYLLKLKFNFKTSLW
UniProt Q7Z2W4: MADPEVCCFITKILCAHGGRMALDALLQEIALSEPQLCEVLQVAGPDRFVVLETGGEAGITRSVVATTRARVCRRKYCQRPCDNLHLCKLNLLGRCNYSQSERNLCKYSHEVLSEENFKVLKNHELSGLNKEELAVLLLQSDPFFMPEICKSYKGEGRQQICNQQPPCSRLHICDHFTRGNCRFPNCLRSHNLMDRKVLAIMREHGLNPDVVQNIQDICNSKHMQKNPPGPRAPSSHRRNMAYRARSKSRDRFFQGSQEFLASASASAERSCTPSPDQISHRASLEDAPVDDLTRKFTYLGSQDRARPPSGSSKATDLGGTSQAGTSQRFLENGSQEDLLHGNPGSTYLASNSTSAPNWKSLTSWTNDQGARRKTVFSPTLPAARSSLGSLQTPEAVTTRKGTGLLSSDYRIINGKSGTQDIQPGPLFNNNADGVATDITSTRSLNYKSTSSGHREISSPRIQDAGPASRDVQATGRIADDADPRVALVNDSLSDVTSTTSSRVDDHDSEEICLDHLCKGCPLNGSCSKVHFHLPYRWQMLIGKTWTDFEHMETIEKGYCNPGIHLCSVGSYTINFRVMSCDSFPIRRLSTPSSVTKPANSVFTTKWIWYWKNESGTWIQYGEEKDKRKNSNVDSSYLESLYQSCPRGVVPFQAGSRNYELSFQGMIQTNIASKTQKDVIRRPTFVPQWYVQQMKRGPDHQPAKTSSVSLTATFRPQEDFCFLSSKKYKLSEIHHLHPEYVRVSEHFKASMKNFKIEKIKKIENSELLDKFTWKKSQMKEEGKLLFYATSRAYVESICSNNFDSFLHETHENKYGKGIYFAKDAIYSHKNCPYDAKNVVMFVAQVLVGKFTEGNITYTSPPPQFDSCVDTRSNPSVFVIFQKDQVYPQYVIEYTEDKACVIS
UniProt P12956: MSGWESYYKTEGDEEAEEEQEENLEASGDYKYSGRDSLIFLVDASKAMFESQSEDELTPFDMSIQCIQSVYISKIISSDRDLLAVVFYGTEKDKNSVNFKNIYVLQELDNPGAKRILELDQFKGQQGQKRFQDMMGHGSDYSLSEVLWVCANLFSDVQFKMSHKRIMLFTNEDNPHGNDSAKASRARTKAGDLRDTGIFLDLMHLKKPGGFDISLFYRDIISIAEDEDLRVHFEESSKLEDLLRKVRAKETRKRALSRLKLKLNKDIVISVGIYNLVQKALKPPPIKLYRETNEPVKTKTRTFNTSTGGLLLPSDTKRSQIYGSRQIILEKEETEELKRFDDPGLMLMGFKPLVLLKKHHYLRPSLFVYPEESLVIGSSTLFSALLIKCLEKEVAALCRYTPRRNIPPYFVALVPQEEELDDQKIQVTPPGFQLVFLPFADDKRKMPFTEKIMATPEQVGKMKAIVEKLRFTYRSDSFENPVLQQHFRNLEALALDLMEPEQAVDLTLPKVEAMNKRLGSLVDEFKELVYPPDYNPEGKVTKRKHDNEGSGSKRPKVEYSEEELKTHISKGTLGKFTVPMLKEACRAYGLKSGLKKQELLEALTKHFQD

Tests used:
[1] = molecular target: TAP-tagged TARG1 (human) (UniProt Q9Y530); test: affinity purification with mass spectrometry; tandem affinity purification of TAP-TARG1 (IgG Sepharose, TEV cleavage, Calmodulin Sepharose) from HEK293 Flp-In T-REx lysate; lysis buffer 50 mM Tris pH 7.5, 150 mM NaCl, 1% Nonidet P-40, without olaparib (ARTD1/2 activated and PAR formed during lysis); 4 °C; LC-MS/MS, label-free quantitation over the TAP-tag control
[2] = molecular target: TAP-tagged TARG1 (human) (UniProt Q9Y530); test: affinity purification with mass spectrometry; tandem affinity purification of TAP-TARG1 as in a1, but with 10 µM olaparib in the lysis buffer (ARTD1/2 inhibited); LC-MS/MS, label-free quantitation over the TAP-tag control

## SUPT16H (from UniProt Q9Y5B9 1-1047)
[1]
  binding: binds

## RFC2 (replication factor C subunit 2) (from UniProt P35250 1-354)
[2]
  binding: binds
[1]
  binding: binds

## ARTD1 (from UniProt P09874 1-1014)
[2]
  binding: binds weakly
[1]
  binding: binds

## PRKDC (from UniProt P78527 1-4128)
[1]
  binding: binds

## ARTD13 (from UniProt Q7Z2W4 1-902)
[2]
  binding: binds

## XRCC6 (from UniProt P12956 1-609)
[1]
  binding: binds

B1: LIG3 (protein, UniProt P49916 43-1009)
chain: LLHGHPLFLRRKPVLSFQGSHLRSRATYLVFLPGLHVGLCSGPCEMAEQRFCVDYAKRGTAGCKKCKEKIVKGVCRIGKVVPNPFSESGGDMKEWYHIKCMFEKLERARATTKKIEDLTELEGWEELEDNEKEQITQHIADLSSKAAGTPKKKAVVQAKLTTTGQVTSPVKGASFVTSTNPRKFSGFSAKPNNSGEAPSSPTPKRSLSSSKCDPRHKDCLLREFRKLCAMVADNPSYNTKTQIIQDFLRKGSAGDGFHGDVYLTVKLLLPGVIKTVYNLNDKQIVKLFSRIFNCNPDDMARDLEQGDVSETIRVFFEQSKSFPPAAKSLLTIQEVDEFLLRLSKLTKEDEQQQALQDIASRCTANDLKCIIRLIKHDLKMNSGAKHVLDALDPNAYEAFKASRNLQDVVERVLHNAQEVEKEPGQRRALSVQASLMTPVQPMLAEACKSVEYAMKKCPNGMFSEIKYDGERVQVHKNGDHFSYFSRSLKPVLPHKVAHFKDYIPQAFPGGHSMILDSEVLLIDNKTGKPLPFGTLGVHKKAAFQDANVCLFVFDCIYFNDVSLMDRPLCERRKFLHDNMVEIPNRIMFSEMKRVTKALDLADMITRVIQEGLEGLVLKDVKGTYEPGKRHWLKVKKDYLNEGAMADTADLVVLGAFYGQGSKGGMMSIFLMGCYDPGSQKWCTVTKCAGGHDDATLARLQNELDMVKISKDPSKIPSWLKVNKIYYPDFIVPDPKKAAVWEITGAEFSKSEAHTADGISIRFPRCTRIRDDKDWKSATNLPQLKELYQLSKEKADFTVVAGDEGSSTTGGSSEENKGPSGSAVSRKAPSKPSASTKKAEGKLSNSNSKDGNMQTAKPSAMKVGEKLATKSSPVKVGEKRKAADETLCQTKVLLDIFTGVRLYLPPSTPDFSRLRRYFVAFDGDLVQEFDMTSATHVLGSRDKNPAAQQVSPEWIWACIRKRRLVAPC
[1]
  binding: binds

Results are given in words; binding and its absence hold for the method and conditions named. In cells and extracts the contact can be indirect. Here binding means that the protein was enriched with, or labelled near, the bait; the list need not be complete.
